Test results: publication PMC6178623
These are yes or no findings as the source states them, for the method shown. Binding seen in cells or lysates may run through a third protein. Some entries that bind do so weakly or less than the wild type.

Protein sequences, listed by entry. Tags and fused reporters are not part of them. Lines headed by an entry give the natural chain unless they say otherwise; changes in a name come on top. Chains listed by the source or under a name are the forms on record and can include a tag or linker. Residues count along the entry.
UniProt O95793: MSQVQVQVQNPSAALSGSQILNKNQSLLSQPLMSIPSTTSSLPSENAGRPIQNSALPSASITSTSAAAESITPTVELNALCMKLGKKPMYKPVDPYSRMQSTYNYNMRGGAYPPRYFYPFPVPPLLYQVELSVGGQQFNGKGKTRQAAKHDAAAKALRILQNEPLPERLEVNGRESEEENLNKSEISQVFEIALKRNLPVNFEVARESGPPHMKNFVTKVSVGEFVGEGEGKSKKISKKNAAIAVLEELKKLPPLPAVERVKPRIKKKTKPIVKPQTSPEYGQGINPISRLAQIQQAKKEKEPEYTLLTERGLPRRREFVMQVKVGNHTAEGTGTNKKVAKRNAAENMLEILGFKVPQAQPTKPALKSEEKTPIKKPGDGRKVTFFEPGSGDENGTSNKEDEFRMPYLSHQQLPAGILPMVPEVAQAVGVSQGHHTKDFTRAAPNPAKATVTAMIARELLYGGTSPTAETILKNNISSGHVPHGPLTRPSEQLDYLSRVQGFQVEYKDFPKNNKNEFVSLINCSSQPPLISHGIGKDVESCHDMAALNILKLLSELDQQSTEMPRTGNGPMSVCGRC
Flag-tagged Staufen1 (STAU1-Flag): residues 82-577 of O95793
UniProt Q05127: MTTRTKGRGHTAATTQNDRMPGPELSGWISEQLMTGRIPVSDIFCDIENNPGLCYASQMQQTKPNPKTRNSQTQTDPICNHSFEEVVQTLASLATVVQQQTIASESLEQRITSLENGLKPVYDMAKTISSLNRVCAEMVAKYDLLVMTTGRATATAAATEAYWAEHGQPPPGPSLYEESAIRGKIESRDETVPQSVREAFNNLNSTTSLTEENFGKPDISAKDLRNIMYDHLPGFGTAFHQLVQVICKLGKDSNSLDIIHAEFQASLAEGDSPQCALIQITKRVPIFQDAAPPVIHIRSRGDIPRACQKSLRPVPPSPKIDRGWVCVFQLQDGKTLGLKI
UniProt P18272: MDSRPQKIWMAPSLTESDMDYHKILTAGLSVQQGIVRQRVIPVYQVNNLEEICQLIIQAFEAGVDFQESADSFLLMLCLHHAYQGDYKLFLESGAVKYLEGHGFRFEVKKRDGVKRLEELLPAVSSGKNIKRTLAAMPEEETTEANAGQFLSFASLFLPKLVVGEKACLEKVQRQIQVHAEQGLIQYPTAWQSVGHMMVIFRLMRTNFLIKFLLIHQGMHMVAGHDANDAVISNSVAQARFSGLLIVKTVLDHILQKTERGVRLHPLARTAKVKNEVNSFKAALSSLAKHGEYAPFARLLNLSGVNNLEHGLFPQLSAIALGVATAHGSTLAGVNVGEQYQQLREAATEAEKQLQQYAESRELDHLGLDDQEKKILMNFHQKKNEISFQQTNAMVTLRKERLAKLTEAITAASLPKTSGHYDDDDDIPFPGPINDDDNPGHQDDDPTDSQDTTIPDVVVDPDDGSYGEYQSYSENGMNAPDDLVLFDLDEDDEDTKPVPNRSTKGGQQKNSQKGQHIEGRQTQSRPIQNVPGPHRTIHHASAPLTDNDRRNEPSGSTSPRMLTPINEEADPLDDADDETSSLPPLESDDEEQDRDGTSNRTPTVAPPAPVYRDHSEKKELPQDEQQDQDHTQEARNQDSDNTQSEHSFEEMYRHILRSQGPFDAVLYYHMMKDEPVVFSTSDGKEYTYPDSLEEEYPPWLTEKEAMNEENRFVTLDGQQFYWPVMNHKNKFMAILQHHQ
UniProt Q05323: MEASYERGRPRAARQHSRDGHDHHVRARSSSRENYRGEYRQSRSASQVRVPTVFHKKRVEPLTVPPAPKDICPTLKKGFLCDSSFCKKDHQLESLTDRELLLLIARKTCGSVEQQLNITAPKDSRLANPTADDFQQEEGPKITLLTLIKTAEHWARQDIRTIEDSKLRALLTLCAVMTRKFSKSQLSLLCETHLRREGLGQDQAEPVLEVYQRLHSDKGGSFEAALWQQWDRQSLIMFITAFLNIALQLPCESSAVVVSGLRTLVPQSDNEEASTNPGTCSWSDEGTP
UniProt P19525: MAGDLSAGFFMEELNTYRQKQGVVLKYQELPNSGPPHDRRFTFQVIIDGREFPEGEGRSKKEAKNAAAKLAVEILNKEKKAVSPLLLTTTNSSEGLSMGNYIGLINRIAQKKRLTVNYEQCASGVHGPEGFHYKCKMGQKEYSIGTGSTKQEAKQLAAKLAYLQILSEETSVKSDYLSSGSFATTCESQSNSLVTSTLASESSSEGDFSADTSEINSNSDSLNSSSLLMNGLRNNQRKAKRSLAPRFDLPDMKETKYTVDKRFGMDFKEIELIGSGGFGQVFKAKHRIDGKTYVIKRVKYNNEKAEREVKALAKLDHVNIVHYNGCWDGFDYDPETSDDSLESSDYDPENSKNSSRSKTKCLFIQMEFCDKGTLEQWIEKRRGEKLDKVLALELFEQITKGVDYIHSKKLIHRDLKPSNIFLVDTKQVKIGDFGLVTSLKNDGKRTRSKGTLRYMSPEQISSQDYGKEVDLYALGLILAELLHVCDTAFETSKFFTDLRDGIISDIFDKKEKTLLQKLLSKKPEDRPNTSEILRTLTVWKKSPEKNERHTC

Columns and labels:
[1] = target: Flag-tagged Staufen1 (STAU1-Flag) (UniProt O95793); test: co-IP
[2] = target: Ebola virus VP35 (as expressed for the sucrose gradient) (Ebola virus (EBOV)) (UniProt Q05127); test: co-sedimentation
[3] = target: Ebola virus nucleoprotein (NP) (Ebola virus (EBOV)) (UniProt P18272); test: co-sedimentation
[4] = target: Ebola virus VP30, Flag-tagged (VP30-Flag) (Ebola virus (EBOV)) (UniProt Q05323); test: co-IP

Substance | binding [1] | binding [2] | binding [3] | binding [4]
Ebola virus nucleoprotein (NP) (from UniProt P18272 1-739) | binds |  |  | 
endogenous Staufen1 (STAU1) (from UniProt O95793 1-577) |  | binds | binds | binds
eukaryotic initiation factor 2 (eIF2α) kinase 2 (EIF2AK2)/protein kinase R (PKR) (from UniProt P19525 1-551) |  |  |  | binds
